The subject of data set [1] is Lef-1 + beta-catenin. In words: EMSA. The note with it: 10 mM Hepes, 70 mM KCl, 1 mM DTT, 1 mM EDTA, 7.5 mM MgCl2, 4% glycerol, 8 ug/ml salmon sperm DNA; 50 fmol 32P probe, 30 min; protein translated in vitro; label: 32P (probe), unlabeled as competitor.
The subject of data set [2] is Lef-1 + beta-catenin. The data set can be described thus: competition with a labelled probe. The note with it: 10 mM Hepes, 70 mM KCl, 1 mM DTT, 1 mM EDTA, 7.5 mM MgCl2, 4% glycerol, 8 ug/ml salmon sperm DNA, 50 fmol 32P probe, 30 min, protein translated in vitro.

Chains of the proteins cited; added tags and fusions are not shown. Chains listed by the source or under a name are the forms on record and can include a tag or linker.
Lef-1 + beta-catenin, one chain, as listed by the source, chain 2 of 2: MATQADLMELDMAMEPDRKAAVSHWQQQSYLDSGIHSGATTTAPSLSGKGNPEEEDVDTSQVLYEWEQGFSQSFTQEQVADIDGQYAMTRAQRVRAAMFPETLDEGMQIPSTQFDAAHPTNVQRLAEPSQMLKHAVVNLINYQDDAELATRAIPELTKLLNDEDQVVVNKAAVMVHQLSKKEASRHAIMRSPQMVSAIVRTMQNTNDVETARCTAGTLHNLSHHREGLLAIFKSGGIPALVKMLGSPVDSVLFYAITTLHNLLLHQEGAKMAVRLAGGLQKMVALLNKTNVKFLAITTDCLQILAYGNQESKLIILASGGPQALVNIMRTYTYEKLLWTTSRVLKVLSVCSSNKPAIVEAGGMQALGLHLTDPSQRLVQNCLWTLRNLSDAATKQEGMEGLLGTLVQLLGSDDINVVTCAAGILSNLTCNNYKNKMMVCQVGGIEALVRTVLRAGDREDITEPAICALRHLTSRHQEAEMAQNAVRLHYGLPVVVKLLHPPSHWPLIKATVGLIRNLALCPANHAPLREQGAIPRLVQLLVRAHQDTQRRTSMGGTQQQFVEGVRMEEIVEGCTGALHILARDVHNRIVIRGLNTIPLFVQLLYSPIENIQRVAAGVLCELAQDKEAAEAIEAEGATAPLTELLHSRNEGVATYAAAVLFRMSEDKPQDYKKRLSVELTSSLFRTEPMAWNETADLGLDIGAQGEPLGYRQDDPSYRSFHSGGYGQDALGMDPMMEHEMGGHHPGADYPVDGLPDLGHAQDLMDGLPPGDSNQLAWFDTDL
Lef-1 + beta-catenin, one chain, as listed by the source, chain 1 of 2: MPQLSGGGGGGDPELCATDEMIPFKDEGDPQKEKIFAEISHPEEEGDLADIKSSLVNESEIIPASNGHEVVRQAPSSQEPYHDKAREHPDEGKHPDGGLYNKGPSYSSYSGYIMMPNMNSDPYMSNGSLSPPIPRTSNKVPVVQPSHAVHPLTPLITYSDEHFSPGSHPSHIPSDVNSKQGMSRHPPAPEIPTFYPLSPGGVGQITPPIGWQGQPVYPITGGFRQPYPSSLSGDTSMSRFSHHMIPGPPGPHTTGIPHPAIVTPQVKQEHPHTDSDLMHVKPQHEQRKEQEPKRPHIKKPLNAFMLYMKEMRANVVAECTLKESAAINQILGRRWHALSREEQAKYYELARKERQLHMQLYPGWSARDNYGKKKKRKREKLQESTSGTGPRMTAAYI

Construct, isoform or probe ends are uncertain for at least one entry. For some assays here: A negative result means that nothing was seen under these conditions. For some assays here: Weaker means in comparison with the reference protein, sequence or condition of that experiment. For some assays here: At least one verdict was read from the data and is not stated in words by the source.

Take “CTCTGCCGGGCTTTGATCTTTGCTTAACAACA (double strand) [CD1TOP (cyclin D1 TOP)]”: the binding result in the data set on Lef-1 + beta-catenin [1] is listed as “binds”.

As to “GGCCTGAGCCTTTGAAGCAGGAGGA (double strand) [Notch-2 -110]”, the binding result with Lef-1 + beta-catenin [2] (300x excess vs CD1TOP) was “binds”.

“GGCCTGAGCGTGTCGAGCAGGAGGA (double strand) [Notch-2 -110 mutated]”: in the data set with Lef-1 + beta-catenin [2] (300x excess vs CD1TOP), the binding result is “no binding”.

“ATCAAGACCAAAGCGGAAAGAAAA (double strand) [Hes-1 -528]”: the binding result with Lef-1 + beta-catenin [2] (vs CD1TOP) is “binds”.

As for “CCTTGGTAGGTGTCGACCTATGTAA (double strand) [Jagged-1 -1933 mutated]”, the binding result with Lef-1 + beta-catenin [2] (300x excess vs CD1TOP) is on record as “no binding”.

As for “TTTCCTTCTTTGACAGCACTGGT (double strand) [Notch-2 -689]”, in the data set on Lef-1 + beta-catenin [2] (vs CD1TOP), the binding result is “binds more weakly”.

In the case of “CAGAAATACAAAGAGTCCTGTGTGA (double strand) [Notch-2 -2261]”, the binding result in the data set with Lef-1 + beta-catenin [2] (vs CD1TOP) is on record as “binds more weakly”.

Consider “CCTTGGTAGCTTTGAACCTATGTAA (double strand) [Jagged-1 -1933]”, for which, in the data set with Lef-1 + beta-catenin [2] (300x excess vs CD1TOP), the binding result is listed as “binds”.

On to “TCCCCTTGGAATCAAAGCCCTGCAT (double strand) [Rfng -2481]”, for which the binding result in the data set with Lef-1 + beta-catenin [2] (vs CD1TOP, only Rfng site tested) was “binds”.

Turning to “TGTCCACCCTCGACACGAAGTCGAT (double strand) [Jagged-1 -1635 mutated]”, the binding result in the data set on Lef-1 + beta-catenin [2] (300x excess vs CD1TOP) is “no binding”.

On to “TGTCCACCCTTCAAAGGAAGTCGAT (double strand) [Jagged-1 -1635]”, for which the binding result in the data set with Lef-1 + beta-catenin [2] (300x excess vs CD1TOP) was “binds”.
